The values below are quoted from earlier work in patent US20230284994A1, “PET-CT IMAGING METHODS, CONTRAST AGENTS AND PHARMACEUTICAL COMPOSITIONS FOR USE IN SAID IMAGING METHODS” (ADIPOSS SÁRL, priority 2020, published 2023).

The data set relates to sites of malignancy. As to conditions: 18FDG PET, benign diseases; cited from earlier work.

In the case of `O=C[C@H]([18F])[C@@H](O)[C@H](O)[C@H](O)CO` [^18FDG, 2-[fluorine-18]fluoro-2-deoxy-D-glucose], the false positive rate is 13%.
